Test results taken from doi:10.1101/2024.10.25.620210.
No constants are given. Whether binding was seen depends on the method and setting. In cells and extracts the contact can be indirect. These calls come from enrichment with a bait or labelling near it, and not all partners need be listed. For some of these results: Sequences can lack the tags named with a protein.

Key:
[1] = biological target: T1, stλP8 (cTP8-2xStrep-HA-TurboID-A10 linker-PAP8) (Arabidopsis thaliana) (UniProt Q9XI19); test: affinity purification with mass spectrometry
T1 sequence: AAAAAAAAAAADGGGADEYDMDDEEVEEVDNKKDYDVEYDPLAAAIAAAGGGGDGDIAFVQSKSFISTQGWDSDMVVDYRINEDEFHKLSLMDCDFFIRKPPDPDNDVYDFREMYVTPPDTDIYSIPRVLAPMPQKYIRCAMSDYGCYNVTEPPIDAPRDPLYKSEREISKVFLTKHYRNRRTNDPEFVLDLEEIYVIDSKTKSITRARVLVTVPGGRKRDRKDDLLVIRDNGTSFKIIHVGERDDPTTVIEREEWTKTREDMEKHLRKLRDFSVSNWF

[2] = biological target: stP8 (cTP8-2xStrep-HA-TurboID-PAP8) (Arabidopsis thaliana) (UniProt Q9XI19); test: affinity purification with mass spectrometry
[3] = biological target: T2, sP8 (cTP8-2xStrep-PAP8) (Arabidopsis thaliana) (UniProt Q9XI19); test: affinity purification with mass spectrometry
T2 sequence: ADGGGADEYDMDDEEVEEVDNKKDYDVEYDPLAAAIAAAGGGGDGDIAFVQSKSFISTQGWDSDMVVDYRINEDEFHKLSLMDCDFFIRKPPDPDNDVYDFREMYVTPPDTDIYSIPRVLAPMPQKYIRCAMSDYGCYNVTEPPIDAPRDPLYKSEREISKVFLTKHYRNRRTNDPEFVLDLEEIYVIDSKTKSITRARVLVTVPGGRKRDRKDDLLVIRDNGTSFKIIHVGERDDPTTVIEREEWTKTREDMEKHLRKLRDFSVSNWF

[4] = biological target: T1, stλP8 (cTP8-2xStrep-HA-TurboID-A10 linker-PAP8) (Arabidopsis thaliana); test: proximity labelling
[5] = biological target: stP8 (cTP8-2xStrep-HA-TurboID-PAP8) (Arabidopsis thaliana) (UniProt Q9XI19); test: proximity labelling

Measured: binding

B1: DJ1C (protein, UniProt Q8VY09 61-472)
chain: SSMSPGMVTTLDSDVGVGSSATTKKVLVPIGYGTEEIEAVVLVDVLRRAGADVTVASVEQKLEVEGSSGTRLLADVLISKCADQVYDLVALPGGMPGAVRLRDCEILEKIMKRQAEDKRLYGAISMAPAITLLPWGLLTRKRTTGHPAFFGKLPTFWAVKTNIQISGELTTSRGPGTSFQFALSLAEQLFGETTAKSIEEFLLLRDGYQNPKNKEFNSIDWSLDHTPRVLIPVANGSEAVELVSIADVLRRAKVDVTVSSVERSLRITAFQGTKIITDKLIGEAAESSYDLIILPGGHTGSERLQKSKILKKLLREQHESGRIYGATNSSSTVLHKHGLLKEKRTTVYPSESDEPMNQQMIEGAEVVIDGNVITSLGLATVTKFSLAIVSKLFGHARARSVSEGLVHEYPRQ
binds: all assays above

B2: PEP core subunit α of Arabidopsis thaliana (protein, UniProt P56762 1-329)
chain: MVREKVKVSTRTLQWKCVESKRDSKRLYYGRFILSPLMKGQADTIGIAMRRALLGEIEGTCITRAKSENIPHDYSNIAGIQESVHEILMNLNEIVLRSNLYGTRNALICVQGPGYITARDIILPPAVEIIDNTQHIATLTEPIDLCIELKIERNRGYSLKMSNNFEDRSYPIDAVFMPVENANHSIHSYGNGNEKQEILFLEIWTNGSLTPKEALHQASRNLINLFIPFLHVEEETFYLENNQHQVTLPFFPFHNRLVNLRKKKKTKELAFQYIFIDQLELPPRIYNCLKKSNIHTLLDLLNNSQEDLIKIEHFHVEDVKKILDILEKK
binds: all assays above

B3: PEP core subunit β of Arabidopsis thaliana (protein, UniProt P50546 1-1072)
chain: MLGDEKEGTSAIPGFNQIQFEGFYRFIDQGLIEELAKFPKIEDIDHEIEFQLFVETYQLVEPLIKERDAVYESLTYSSELYVSAGLIWKTSRNMQEQRIFIGNIPLMNSLGTSIVNGIYRIVINQILQSPGIYYQSELDHNGISVYTGTIISDWGGRLELEIDKKARIWARVSRKQKISILVLSSAMGLNLREILENVCYPEIFLSFLTDKEKKKIGSKENAILEFYQQFSCVGGDPIFSESLCKELQKKFFHQRCELGRIGRRNINWRLNLNIPQNNIFLLPRDVLAAADHLIGMKFGMGTLDDMNHLKNKRIRSVADLLQDQLGLALARLENVVKGTISGAIRHKLIPTPQNLVTSTPLTTTYESFFGLHPLSQVLDRTNPLTQIVHGRKLSYLGPGGLTGRTANFRIRDIHPSHYGRICPIDTSEGINVGLIGSLSIHARIGDWGSLESPFYELFEKSKKARIRMLFLSPSQDEYYMIAAGNSLALNRGIQEEQAVPARYRQEFLTIAWEEVHLRSIFPFQYFSIGASLIPFIEHNDANRALMSSNMQRQAVPLSRSEKCIVGTGLERQVALDSGVPAIAEHEGKILYTDTEKIVFSGNGDTLSIPLIMYQRSNKNTCMHQKPQVRRGKCIKKGQILADGAATVGGELALGKNILVAYMPWEGYNFEDAVLISECLVYGDIYTSFHIRKYEIQTHVTTQGPERITKEIPHLEGRLLRNLDKNGIVMLGSWVETGDILVGKLTPQVAKESSYAPEDRLLRAILGIQVSTSKETCLKLPIGGRGRVIDVRWVQKKGGSSYNPEIIRVYISQKREIKVGDKVAGRHGNKGIISKILPRQDMPYLQDGRPVDMVFNPLGVPSRMNVGQIFECSLGLAGSLLDRHYRIAPFDERYEQEASRKLVFSELYEASKQTANPWVFEPEYPGKSRIFDGRTGDPFEQPVIIGKPYILKLIHQVDDKIHGRSSGHYALVTQQPLRGRSKQGGQRVGEMEVWALEGFGVAHILQEMLTYKSDHIRARQEVLGTTIIGGTIPKPEDAPESFRLLVRELRSLALELNHFLVSEKNFQINRKEV
binds: all assays above

B4: PEP core subunit β′ of Arabidopsis thaliana (protein, UniProt P56763 1-680)
chain: MIDRYKHQQLRIGLVSPQQISAWATKIIPNGEIVGEVTKPYTFHYKTNKPEKDGLFCERIFGPIKSGICACGNYRVIGDEKEDPKFCEQCGVEFVDSRIRRYQMGYIKLTCPVTHVWYLKRLPSYIANLLDKPLKELEGLVYCDFSFARPITKKPTFLRLRGSFEYEIQSWKYSIPLFFTTQGFDIFRNREISTGAGAIREQLADLDLRIIIENSLVEWKQLGEEGPTGNEWEDRKIVRRKDFLVRRMELAKHFIRTNIEPEWMVLCLLPVLPPELRPIIQIEGGKLMSSDINELYRRVIYRNNTLTDLLTTSRSTPGELVMCQEKLVQEAVDTLLDNGIRGQPMRDGHNKVYKSFSDVIEGKEGRFRETLLGKRVDYSGRSVIVVGPSLSLHRCGLPREIAIELFQTFVIRGLIRQHLASNIGVAKSQIREKKPIVWEILQEVMQGHPVLLNRAPTLHRLGIQSFQPILVEGRTICLHPLVCKGFNADFDGDQMAVHVPLSLEAQAEARLLMFSHMNLLSPAIGDPISVPTQDMLIGLYVLTSGTRRGICANRYNPCNRKNYQNERIYETNYKYTKEPFFCNSYDAIGAYRQKKINLDSPLWLRWQLDQRVIASREVPIEVHYESFGNYHEIYAHYLIVRSVKKENFCIYIRTTVGHISFYREIEEAIQGFSQACSYDT
binds: all assays above

B5: PEP core subunit β″ of Arabidopsis thaliana (protein, UniProt P56764 1-1376)
chain: MAERANLVFHNKVIDGTAIKRLISRLIDHFGMAYTSHILDQVKTLGFQQATATSISLGIDDLLTIPSKGWLVQDAEQQSWILEKHHHYGNVHAVEKLRQSIEIWYATSEYLRQEMNPNFRMTDPFNPVHMMSFSGARGNASQVHQLVGMRGLMSDPQGQMIDLPIQSNLREGLSLTEYIISCYGARKGVVDTAVRTSDAGYLTRRLVEVVQHIVVRRTDCGTIRGISVSPRNKNRMMSERIFIQTLIGRVLADDIYIGSRCVAFRNQDLGIGLVNRLITFGTQSISIRTPFTCRSTSWICRLCYGRSPTHGDLVELGEAVGIIAGQSIGEPGTQLTLRTFHTGGVFTGGTAEHVRAPYNGKIKFNEDLVHPTRTRHGHPAFLCYIDLSVIIESEDIIHSVTIPPKSFLLVQNDQYVESEQVIAEIREGTYTFHFKERVRKYIYSDSEGEMHWSTDVSHAPEFTYSNVHLLPKTSHLWILSGGSCGSSLIRFSIHKDQDQMNIPFLSAERKSISSLSVNNDQVSQKFFSSDFADPKKLGIYDYSELNGNLGTSHYNLIYSAIFHENSDLLAKRRRNRFLIPFQSIQEQEKEFIPQSGISVEIPINGIFRRNSIFAFFDDPRYRRKSSGILKYGTLKADSIIQKEDMIEYRGVQKIKTKYEMKVDRFFFIPEEVHILPESSAIMVQNYSIIGVDTRLTLNIRSQVGGLIRVEKKKKRIELKIFSGDIHFPDKTDKISRHSGILIPPGRGKKNSKESKKFKNWIYVQRITPTKKKFFVLVRPVATYEIADSINLATLFPQDLFREKDNIQLRVFNYILYGNGKPTRGISDTSIQLVRTCLVLNWDKNSSLEEVRAFFVEVSTKGLIQDFIRIGLVKSHISYIRKRNNSPDSGLISADHMNPFYSISPKSGILQQSLRQNHGTIRMFLNRNKESQSLLILSSSNCFRMGPFNHVKHHNVINQSIKKNTLITIKNSSGPLGTATPISNFYSFLPLLTYNQISLIKYFQLDNLKYIFQKINSYLIDENGIILNLDPYSNVVLNPFKLNWYFLHQNYHHNYCEETSTIISLGQFFCENVCIAKKEPHLKSGQVLIVQRDSAVIRSAKPYLATPGAKVHGHYSEILYEGDTLVTFIYEKSRSGDITQGLPKVEQVLEVRSIDSISLNLEKRIKGWNKCITRILGIPWGFLIGAELTIVQSRISLVNKIQKVYRSQGVQIHNRHIEIIVRQITSKVLVSEEGMSNVFLPGELIGLLRAERTGRALEEAICYRAVLLGITRASLNTQSFISEASFQETARVLAKAALRGRIDWLKGLKENVVLGGVIPAGTGFNKGLVHCSRQHTNIILEKKTKNLALFEGDMRDILFYHREFCDSSISKSDFSRI
binds: all assays above
